In PMC8400955 (Pharmaceuticals, 2021):

Test: Bidirectional permeability across Caco-2 cell monolayers
Format: in vitro ADME
Details: human; Caco-2, 5 μM
Experimental: The bidirectional permeability and absorption mechanism of ZB716 was evaluated across Caco-2 cell monolayers.
The apical-to-basolateral (A–B) and basolateral-to-apical (B–A) transport of ZB716 in HBSS (25 mM HEPES) with 1% BSA was measured across Caco-2 cell monolayers. […] All incubations were performed in triplicate, and the integrity of the cell monolayers was confirmed using the marker Lucifer yellow.
The slope, k, was determined by linear
using the following equation: […]
1.4 Intestinal Mucosal Permeation of ZB716
Papp= VAArea х timeх ሾdrugሿreceiverሾdrugሿinitial,donor

## CC(C)NCC(O)COc1ccc(CC(N)=O)cc1 (centres unmarked) [Atenolol, atenolol, reference compound]
  Papp A→B at 120 min, 5 μM: 0.506 ± 0.034 ×10⁻⁶ cm/s
  Papp B→A at 120 min, 5 μM: 0.635 ± 0.042 ×10⁻⁶ cm/s
